Experimental data from publication PMC8638147.
No constants are given. Whether binding was seen depends on the method and setting. In cells and extracts the contact can be indirect. Some results given as binding are weak or reduced against the parent protein; the word gives no strength.

The chains behind the UniProt entries cited, without tags or fusion partners. Where a name states a change or a piece, a line headed by the entry shows the natural chain unless it says otherwise.
UniProt O43683: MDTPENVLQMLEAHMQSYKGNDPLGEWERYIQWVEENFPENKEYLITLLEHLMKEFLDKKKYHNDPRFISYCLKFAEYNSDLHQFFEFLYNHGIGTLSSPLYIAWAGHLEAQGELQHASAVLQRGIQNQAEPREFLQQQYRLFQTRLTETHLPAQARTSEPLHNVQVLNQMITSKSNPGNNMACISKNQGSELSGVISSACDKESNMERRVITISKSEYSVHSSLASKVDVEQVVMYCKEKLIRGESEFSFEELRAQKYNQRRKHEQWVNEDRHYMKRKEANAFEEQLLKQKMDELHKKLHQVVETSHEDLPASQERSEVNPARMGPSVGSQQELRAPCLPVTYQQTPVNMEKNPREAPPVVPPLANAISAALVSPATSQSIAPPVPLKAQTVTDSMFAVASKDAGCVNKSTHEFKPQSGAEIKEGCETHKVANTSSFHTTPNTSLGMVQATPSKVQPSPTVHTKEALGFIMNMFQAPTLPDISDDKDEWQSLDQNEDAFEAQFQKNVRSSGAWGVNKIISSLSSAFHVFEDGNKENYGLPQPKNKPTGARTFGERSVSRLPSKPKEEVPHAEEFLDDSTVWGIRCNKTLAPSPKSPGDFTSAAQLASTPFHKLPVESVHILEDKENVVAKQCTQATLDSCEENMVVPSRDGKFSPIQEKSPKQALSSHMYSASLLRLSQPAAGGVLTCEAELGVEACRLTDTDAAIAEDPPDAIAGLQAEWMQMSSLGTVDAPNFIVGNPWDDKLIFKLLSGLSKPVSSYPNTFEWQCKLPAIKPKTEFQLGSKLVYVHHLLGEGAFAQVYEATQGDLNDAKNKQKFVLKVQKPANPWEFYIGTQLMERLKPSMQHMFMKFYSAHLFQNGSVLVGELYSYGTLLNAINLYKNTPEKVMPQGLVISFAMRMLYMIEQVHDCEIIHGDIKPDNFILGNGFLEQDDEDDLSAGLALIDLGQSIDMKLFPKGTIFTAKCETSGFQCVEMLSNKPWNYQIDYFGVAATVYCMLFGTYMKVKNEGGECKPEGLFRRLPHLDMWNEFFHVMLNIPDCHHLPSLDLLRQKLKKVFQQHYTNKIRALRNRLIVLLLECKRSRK
UniProt P40763: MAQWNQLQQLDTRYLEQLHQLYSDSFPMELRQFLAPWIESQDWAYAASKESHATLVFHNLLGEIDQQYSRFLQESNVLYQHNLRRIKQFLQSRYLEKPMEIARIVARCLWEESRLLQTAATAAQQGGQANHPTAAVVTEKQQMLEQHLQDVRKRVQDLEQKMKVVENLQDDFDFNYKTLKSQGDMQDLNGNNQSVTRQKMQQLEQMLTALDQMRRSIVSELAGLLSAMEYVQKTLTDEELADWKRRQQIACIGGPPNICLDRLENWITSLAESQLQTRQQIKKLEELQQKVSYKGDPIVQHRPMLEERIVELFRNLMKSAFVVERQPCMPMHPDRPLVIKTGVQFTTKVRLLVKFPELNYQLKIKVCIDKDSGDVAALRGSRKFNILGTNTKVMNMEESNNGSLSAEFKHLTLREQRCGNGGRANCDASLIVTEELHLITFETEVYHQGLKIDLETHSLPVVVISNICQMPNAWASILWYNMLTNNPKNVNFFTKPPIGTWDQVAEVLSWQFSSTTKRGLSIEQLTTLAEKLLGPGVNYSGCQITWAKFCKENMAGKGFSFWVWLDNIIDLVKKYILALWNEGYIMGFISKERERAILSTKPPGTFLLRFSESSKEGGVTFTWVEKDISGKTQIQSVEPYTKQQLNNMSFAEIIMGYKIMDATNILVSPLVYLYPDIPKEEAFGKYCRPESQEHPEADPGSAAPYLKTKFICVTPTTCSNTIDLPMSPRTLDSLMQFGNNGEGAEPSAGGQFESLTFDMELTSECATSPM
UniProt Q09472: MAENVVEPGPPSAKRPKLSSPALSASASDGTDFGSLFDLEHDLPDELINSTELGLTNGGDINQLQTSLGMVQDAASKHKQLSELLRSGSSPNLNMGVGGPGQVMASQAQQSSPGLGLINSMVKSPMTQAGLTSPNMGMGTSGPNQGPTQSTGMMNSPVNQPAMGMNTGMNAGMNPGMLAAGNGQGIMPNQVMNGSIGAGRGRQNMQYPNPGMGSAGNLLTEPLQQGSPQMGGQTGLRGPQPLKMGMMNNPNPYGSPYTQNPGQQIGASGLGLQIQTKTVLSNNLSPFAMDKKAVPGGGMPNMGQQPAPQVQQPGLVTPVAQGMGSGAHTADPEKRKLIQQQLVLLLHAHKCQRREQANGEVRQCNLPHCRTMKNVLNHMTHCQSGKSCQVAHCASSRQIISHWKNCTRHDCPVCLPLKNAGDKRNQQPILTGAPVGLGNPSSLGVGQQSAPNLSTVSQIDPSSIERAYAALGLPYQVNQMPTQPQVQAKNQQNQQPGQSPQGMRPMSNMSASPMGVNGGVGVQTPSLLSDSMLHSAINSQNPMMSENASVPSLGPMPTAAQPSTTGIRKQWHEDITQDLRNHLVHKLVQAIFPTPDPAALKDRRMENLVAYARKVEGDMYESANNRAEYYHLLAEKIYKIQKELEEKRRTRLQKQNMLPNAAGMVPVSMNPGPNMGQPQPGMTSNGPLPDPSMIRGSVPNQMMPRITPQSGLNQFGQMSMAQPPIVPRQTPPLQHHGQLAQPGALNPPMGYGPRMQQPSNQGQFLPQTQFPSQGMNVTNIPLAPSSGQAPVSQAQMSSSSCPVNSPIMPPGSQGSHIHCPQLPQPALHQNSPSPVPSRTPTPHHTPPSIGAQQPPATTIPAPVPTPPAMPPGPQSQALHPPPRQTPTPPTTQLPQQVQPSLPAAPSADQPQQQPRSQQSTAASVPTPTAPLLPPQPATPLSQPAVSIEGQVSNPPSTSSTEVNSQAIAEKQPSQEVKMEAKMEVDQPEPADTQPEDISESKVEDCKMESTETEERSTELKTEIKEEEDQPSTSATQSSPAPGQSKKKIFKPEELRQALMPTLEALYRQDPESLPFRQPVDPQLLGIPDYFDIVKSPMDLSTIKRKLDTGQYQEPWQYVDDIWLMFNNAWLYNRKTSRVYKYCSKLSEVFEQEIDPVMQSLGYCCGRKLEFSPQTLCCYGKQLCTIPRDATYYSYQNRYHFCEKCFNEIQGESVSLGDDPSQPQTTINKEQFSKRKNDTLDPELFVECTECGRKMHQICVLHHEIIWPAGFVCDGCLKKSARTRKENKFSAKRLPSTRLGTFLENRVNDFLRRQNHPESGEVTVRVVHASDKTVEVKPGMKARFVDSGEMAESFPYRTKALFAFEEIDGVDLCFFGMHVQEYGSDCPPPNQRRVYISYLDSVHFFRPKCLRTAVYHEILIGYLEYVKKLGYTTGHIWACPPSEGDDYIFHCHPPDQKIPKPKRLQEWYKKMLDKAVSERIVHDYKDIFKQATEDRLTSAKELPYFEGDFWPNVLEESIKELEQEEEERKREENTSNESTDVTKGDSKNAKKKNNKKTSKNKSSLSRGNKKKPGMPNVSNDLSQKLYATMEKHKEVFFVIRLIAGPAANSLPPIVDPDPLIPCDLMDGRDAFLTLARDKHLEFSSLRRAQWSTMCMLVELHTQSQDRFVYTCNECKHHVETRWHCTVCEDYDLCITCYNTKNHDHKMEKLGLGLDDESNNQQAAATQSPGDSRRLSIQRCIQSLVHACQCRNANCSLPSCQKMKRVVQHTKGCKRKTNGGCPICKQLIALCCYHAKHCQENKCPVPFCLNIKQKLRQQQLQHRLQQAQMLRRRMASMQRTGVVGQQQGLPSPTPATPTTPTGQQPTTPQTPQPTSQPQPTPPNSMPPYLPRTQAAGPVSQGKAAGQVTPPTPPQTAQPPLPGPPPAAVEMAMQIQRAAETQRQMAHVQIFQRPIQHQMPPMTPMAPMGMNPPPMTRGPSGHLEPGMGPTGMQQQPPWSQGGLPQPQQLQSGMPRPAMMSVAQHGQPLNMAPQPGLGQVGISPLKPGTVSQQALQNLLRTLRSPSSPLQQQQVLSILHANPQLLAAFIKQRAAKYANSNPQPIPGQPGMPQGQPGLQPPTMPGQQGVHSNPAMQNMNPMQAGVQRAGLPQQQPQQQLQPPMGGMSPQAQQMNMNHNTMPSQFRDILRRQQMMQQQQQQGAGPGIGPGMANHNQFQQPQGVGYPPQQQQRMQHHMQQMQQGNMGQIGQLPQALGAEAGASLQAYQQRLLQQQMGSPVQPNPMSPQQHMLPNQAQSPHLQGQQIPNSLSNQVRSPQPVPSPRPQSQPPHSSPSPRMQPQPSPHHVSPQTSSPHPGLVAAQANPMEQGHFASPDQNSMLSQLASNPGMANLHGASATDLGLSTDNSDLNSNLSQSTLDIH

Columns and labels:
[1] = target: BUB1 (budding uninhibited by benzamidazole 1), mitotic serine/threonine kinase (human (endogenous in T24, EJ and 5637)) (UniProt O43683); assay: co-IP; lysates of T24, EJ and 5637 cells grown serum-fed; lysis buffer 150 mM KCl, 75 mM HEPES pH 7.5, 1.5 mM EGTA, 1.5 mM MgCl2, 10% glycerol, 0.075% NP-40; protein A-Sepharose with antibody overnight at 4 C; Western blot
[2] = target: BUB1 (budding uninhibited by benzamidazole 1), mitotic serine/threonine kinase (human (endogenous in T24, EJ and 5637)) (UniProt O43683); assay: co-IP; myc-tagged STAT3 full length and deletion mutants in 5637 cells (the text says pulldown, the legend co-IP); Western blot for BUB1

binding [1]	binding [2]	Substance
binds		STAT3 (from UniProt P40763 1-770)
binds		histone acetyltransferase p300 (from UniProt Q09472 1-2414) (enzyme)
	binds	myc-tagged C-terminal (amino acids 586-770) domain of STAT3 (from UniProt P40763 586-770) (domain or fragment)
	binds	myc-tagged full-length STAT3 (from UniProt P40763 1-770)
